Data: patent publication US20030162190
Construct, isoform or probe ends are uncertain for at least one entry.

Chains of the proteins cited; added tags and fusions are not shown. Chains listed by the source or under a name are the forms on record and can include a tag or linker.
c-Rel homodimer, one chain, as listed by the source: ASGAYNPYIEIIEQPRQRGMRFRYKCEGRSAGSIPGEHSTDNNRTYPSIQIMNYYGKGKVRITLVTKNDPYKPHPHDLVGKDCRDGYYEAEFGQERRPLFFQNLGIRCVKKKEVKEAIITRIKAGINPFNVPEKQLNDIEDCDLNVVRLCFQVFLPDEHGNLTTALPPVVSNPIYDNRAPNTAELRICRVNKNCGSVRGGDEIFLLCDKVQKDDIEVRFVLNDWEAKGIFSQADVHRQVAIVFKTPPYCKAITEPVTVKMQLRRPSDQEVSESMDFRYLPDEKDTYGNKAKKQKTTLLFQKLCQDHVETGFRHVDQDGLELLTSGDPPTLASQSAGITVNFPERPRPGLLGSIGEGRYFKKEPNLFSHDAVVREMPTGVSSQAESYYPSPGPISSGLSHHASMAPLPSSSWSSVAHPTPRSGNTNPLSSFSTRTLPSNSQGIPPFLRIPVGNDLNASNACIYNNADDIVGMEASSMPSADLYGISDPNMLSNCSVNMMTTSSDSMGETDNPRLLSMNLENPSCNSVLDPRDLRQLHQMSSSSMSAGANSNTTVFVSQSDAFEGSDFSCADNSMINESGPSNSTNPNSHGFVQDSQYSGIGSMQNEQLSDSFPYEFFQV

System: c-Rel homodimer
Assay: EMSA
Settings: purified recombinant protein

Sequence	binding result (behaved similarly to CK-1, variant of CK-1 phosphodiester duplex)	binding result
CCAGGAGATTCCAC (double strand) [CK-14 phosphodiester duplex]	binds	–
CCAGGAGATTCCACCCAGGAGATTCCACCCAGGAGATTCCAC (double strand) [CK-1 phosphodiester duplex]	–	binds
